In patent US20160207973A1:
Positions count from the first letter of the chain named. These are yes or no findings as the source states them, for the method shown. Some entries that bind do so weakly or less than the wild type. For part of these data: Tags and fused reporters may be left off the sequences shown. One block for each binder: values may come before it.

Amino acid sequences for entries named in this document (tags omitted). Residues count along the entry.
UniProt P36894, residues 24-152: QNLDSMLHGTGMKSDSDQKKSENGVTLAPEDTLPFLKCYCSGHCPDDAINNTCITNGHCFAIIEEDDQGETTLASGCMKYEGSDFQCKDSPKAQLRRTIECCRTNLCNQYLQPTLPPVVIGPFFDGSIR
UniProt P27037: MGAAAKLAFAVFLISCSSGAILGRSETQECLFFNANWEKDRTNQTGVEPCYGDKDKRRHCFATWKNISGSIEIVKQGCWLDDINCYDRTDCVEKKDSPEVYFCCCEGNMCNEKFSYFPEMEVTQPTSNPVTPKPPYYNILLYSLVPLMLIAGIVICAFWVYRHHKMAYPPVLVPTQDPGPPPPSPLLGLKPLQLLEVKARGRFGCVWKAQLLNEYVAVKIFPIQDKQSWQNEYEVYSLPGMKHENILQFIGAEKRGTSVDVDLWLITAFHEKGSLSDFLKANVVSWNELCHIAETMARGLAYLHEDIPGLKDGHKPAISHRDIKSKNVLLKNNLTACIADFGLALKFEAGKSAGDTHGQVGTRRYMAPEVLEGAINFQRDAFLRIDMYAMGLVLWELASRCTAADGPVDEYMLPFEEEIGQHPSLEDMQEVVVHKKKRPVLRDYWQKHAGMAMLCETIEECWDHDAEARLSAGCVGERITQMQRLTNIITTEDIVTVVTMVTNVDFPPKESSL

What was measured:
[1] = target: T1, ALK6 receptor-human-IgG1-Fc fusion protein (human) (UniProt O00238); experiment: as stated in Example 4
T1 sequence (looked up): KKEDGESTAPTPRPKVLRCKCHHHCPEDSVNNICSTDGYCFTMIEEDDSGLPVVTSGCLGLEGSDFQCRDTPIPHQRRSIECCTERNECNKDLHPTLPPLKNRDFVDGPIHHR

[2] = target: ALK3 receptor-human-IgG1-Fc fusion protein (human) (UniProt P36894); experiment: as stated in Example 4
[3] = target: T1, ALK6 receptor-human-IgG1-Fc fusion protein (human); experiment: Example 2
[4] = target: ALK3 receptor-human-IgG1-Fc fusion protein (human) (UniProt P36894); experiment: Example 2
[5] = target: T2, BMPRII receptor-human-IgG1-Fc fusion protein (human) (UniProt Q13873); experiment: BLI (Octet), receptor-Fc on anti-human IgG tips
T2 sequence (looked up): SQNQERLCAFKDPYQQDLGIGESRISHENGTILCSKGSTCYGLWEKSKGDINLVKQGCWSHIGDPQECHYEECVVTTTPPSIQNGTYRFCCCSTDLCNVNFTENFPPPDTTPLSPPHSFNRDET

[6] = target: T1, ALK6 receptor-human-IgG1-Fc fusion protein (human); experiment: BLI (Octet), receptor-Fc on anti-human IgG tips
[7] = target: ActRIIA receptor-human-IgG1-Fc fusion protein (human) (UniProt P27037); experiment: BLI (Octet), receptor-Fc on anti-human IgG tips
[8] = target: ALK3 receptor-human-IgG1-Fc fusion protein (human) (UniProt P36894); experiment: BLI (Octet), receptor-Fc on anti-human IgG tips
[9] = target: T3, ActRIIB receptor-human-IgG1-Fc fusion protein (human) (UniProt Q13705); experiment: BLI (Octet), receptor-Fc on anti-human IgG tips
T3 sequence (looked up): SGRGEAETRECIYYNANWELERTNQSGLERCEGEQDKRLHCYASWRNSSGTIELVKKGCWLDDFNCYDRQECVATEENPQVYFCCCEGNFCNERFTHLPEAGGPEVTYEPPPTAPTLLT

[10] = target: T4, ALK2 receptor-human-IgG1-Fc fusion protein (human) (UniProt Q04771); experiment: BLI (Octet), receptor-Fc on anti-human IgG tips
T4 sequence (looked up): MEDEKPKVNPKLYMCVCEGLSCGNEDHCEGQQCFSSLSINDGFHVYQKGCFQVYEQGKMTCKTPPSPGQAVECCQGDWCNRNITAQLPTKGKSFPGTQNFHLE

- binding [1]: binds
- binding [2]: binds
- binding [3]: binds
- binding [4]: binds
- binding [5]: binds
- binding [6]: binds
- binding [7]: binds
- binding [8]: binds
- binding [9]: binds
B1: designer BMPE (ligand)
chain: QAKHKQRKRLKSSCKRHPLYVDFSDVGWNDWIVAPPGYHAFYCDGECSFPLNAHMNATNHAIVQTLVHLMNPEYVPKPCCAPTELSAISMLYLDENEKVVLKNYQDMVVEGCGCR
modifications: N-linked glycan at N56 (CHO-produced)

- binding [5]: binds
- binding [10]: binds
- binding [6]: binds
- binding [7]: binds
- binding [8]: binds
- binding [9]: binds
B2: designer BMP-GER (ligand)
chain: B1 chain with V33I, P36R, H39A, S86N, M90V, L93F, E95D, E97S, K98N, V100I

- binding [5]: binds
- binding [10]: binds
- binding [6]: binds
- binding [7]: binds
- binding [8]: binds
- binding [9]: binds
B3: designer BMP-GEP (ligand)
chain: B1 chain with V33I, H39A, S86N, M90V, L93F, E95D, E97S, K98N, V100I
